Laboratory results: PubChem BioAssay AID1259254 (NCATS, 2017)
Test: 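Finding genes that stop cells copying their DNA twice in one cycle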 (primary screen). Cell system: human HCT116 colorectal cancer cells. Knock-down reagent: single siRNA against human genes. Timing: 3 days. Read-out: 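Nuclei stained with Hoechst and imaged; cell-cycle phase assigned by DNA content; G2 share scaled per plate, non-targeting siRNA 0%, GMNN siRNA 100%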. Direction: G2 robust z-score: higher = more G2 cells, more excess DNA replication. Call rule: 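Active siRNAs have a G2 robust z of 5 or more median absolute deviations over the median, which in these data means about 38% or higher of GMNN control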.
In all, the deposit lists about 59,000 reagents; shown is a random part of them. About 1,550 of them (2.6%) were called active. 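G2 share is only a proxy for re-replication; each gene was hit by three separate siRNAs, and active genes were retested.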 Reagents against one gene are numbered here. Not all columns of the deposit are shown. The record does not give: the amount of reagent.

G2 robust z-score, by target gene and reagent
OR7E24 (GeneID 26648): #1 2.27 inactive; #2 -0.285 inactive; #3 0.301 inactive
PTPRM (GeneID 5797): #1 -1.17 inactive; #2 -0.546 inactive; #3 -1.31 inactive
HCRT (GeneID 3060): #1 0.0738 inactive; #2 -0.204 inactive; #3 -1.04 inactive
TMEM74B (GeneID 55321): #1 2.56 inactive; #2 -0.216 inactive; #3 1.18 inactive
RABL6 (GeneID 55684): #1 1.37 inactive; #2 1.54 inactive; #3 0.318 inactive
PPP1R13B (GeneID 23368): #1 0.0206 inactive; #2 0.0238 inactive; #3 -0.349 inactive
ROPN1L (GeneID 83853): #1 -0.618 inactive; #2 -0.109 inactive; #3 3.13 inactive; #4 -0.76 inactive; #5 1.63 inactive; #6 -0.65 inactive
BRD1 (GeneID 23774): #1 -0.16 inactive; #2 -1.09 inactive; #3 -0.208 inactive
PRR12 (GeneID 57479): #1 0.82 inactive; #2 3.28 inactive; #3 2.81 inactive
B3GALT4 (GeneID 8705): #1 0.276 inactive; #2 -0.664 inactive; #3 -0.548 inactive
TRIB1 (GeneID 10221): #1 0.512 inactive; #2 -0.0655 inactive; #3 0.665 inactive
LINC02604 (GeneID 644794): #1 1.49 inactive; #2 -0.541 inactive; #3 -1.03 inactive
HKDC1 (GeneID 80201): #1 0.344 inactive; #2 1.01 inactive; #3 0.613 inactive
MMP24 (GeneID 10893): #1 5.32 active; #2 3.02 inactive; #3 0.0116 inactive
WDR53 (GeneID 348793): #1 -0.327 inactive; #2 3.85 inactive; #3 0.839 inactive
